PubChem BioAssay AID743266 (National Center for Advancing Translational Sciences (NCATS), 2014)
About 310 (0.076%) of roughly 410,000 compounds were called active. The shares of active, inactive and inconclusive entries below differ from those in the screen. The call rests on the fitted dose curve; in most records, active means well fitted activation curve with a large enough effect; inconclusive means small, poorly fitted or top-dose-only effect, or another doubt; inactive means no such curve, though single readings can be large or run the other way. Where the call is inconclusive, the potency comes from a doubtful curve fit.

Sequences of proteins named here, by UniProt entry; tags and fusion partners are left off. A change or cut given only in a name is not applied to a line headed by its entry.
UniProt Q03431: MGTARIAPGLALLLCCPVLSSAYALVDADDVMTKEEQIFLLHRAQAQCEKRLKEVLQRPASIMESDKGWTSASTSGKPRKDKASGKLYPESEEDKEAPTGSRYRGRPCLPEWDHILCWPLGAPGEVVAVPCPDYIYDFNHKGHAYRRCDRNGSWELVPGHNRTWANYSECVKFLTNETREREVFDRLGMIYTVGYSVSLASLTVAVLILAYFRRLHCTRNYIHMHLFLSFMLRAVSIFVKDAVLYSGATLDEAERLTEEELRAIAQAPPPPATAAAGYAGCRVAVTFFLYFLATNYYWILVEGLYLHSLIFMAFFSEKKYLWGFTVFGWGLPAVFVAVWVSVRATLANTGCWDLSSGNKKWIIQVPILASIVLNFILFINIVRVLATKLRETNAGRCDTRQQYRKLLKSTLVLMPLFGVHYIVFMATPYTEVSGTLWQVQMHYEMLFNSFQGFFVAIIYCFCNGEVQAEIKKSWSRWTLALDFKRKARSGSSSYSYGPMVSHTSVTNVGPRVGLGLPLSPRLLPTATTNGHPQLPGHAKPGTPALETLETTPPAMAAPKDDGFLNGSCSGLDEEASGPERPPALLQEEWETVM

biological target: Parathyroid hormone/parathyroid hormone-related peptide receptor (Homo sapiens) (UniProt Q03431); assay: qHTS for PTHR1 Agonists: Primary Screen; settings: HEK293 GP2 PTHR1 cells, GloSensor cAMP luminescence, 1 h; activation: at 115 µM (top of the series) unless noted; series mostly up to 115 µM; further: nearly all actives have a fitted effect of over 55% in size
From the text: The goal of the proposed studies is to discover new compounds that act as potent agonists on the parathyroid hormone receptor type-1 (PTHR1). The PTHR1 plays critical roles in maintaining blood calcium and phosphate levels, as well as in controlling bone remodeling. PTHR1 agonists could thus be useful for treating diseases such as hypoparathyroidism and osteoporosis. In the former disease, an agonist drug would help maintain normal blood calcium and phosphate levels under conditions of parathyroid hormone deficiency. In the latter disease, an agonist drug would stimulate new bone formation and thus reduce the risk of fracture, under conditions of bone fragility, as occurs in aging.
To that end, we performed a quantitative high-throughput screening (qHTS) of the Molecular Libraries Probe Centers Network (MLPCN) compound libraries at the NIH Chemical Genomics Center (NCGC) for the parathyroid hormone receptor type-1 (PTHR1) using a unique HEK-293-derived cell line (GP2) that expresses the PTHR1 and a glosensor cAMP reporter construct.
NIH Molecular Libraries Probe Production Centers Network [MLPCN]
NIH Chemical Genomics Center [NCGC]
Assay Submitter (PI): Thomas Gardella, Massachusetts General Hospital
4 microL are dispensed into a 1536-well micro plate to yield 3,000 cells/well. The plates are then incubated overnight, after which 4 microL of 0.5 mM of BIoTium Luciferin plus 0.5 mM IBMX are added. They are then incubated at 37 degree for one hour before 23 nL of compounds are added through pinning and then incubated at 37 degree again for another hour. After the plates are kept at room temperature for 15 min before they are read on the ViewLux to measure luminescence.
Potency means the concentration at half of the fitted maximal effect.

outcome, inactive:
Cc1ccnc(NS(=O)(=O)c2ccc(NC(=O)c3cc(=O)c4ccc(C)c(C)c4o3)cc2)n1
Cc1nc(SCC(=O)NC2CCCCC2C)nc(C)c1C (stereo not given)
COc1cc(OC)cc(N2C(=O)CSC23C(=O)Nc2ccccc23)c1 (stereo not given)
Cc1ccc(SC2=C(Sc3ccc(C)cc3)C(=O)c3ccccc3C2=O)cc1
O=C(CC(=O)Nc1ccc(Br)cc1)Nc1ccc(Br)cc1
C=CCn1c(SCC(=O)Nc2ccccc2C)nc2sc(C)c(C)c2c1=O

Potency, inconclusive:
COc1ccc(CNC(=O)c2cc3c(=O)n(Cc4cccs4)ccc3nc2C)cc1 100 µM [activator, single point]
Cc1ccc(-c2cc(Cc3ccc(F)cc3)c(=O)[nH]n2)cc1 1.78 µM [activator, full curve, poor fit]
CCCn1cc(S(=O)(=O)c2cccc(Cl)c2)c(=O)c2cc(F)c(N3CCN(CC)CC3)cc21 112 µM [activator, single point]
CC(=O)Nc1sc(N/N=C/c2ccc(O)cc2)nc1-c1ccc(C)cc1 141 µM [activator, single point]
CC(C)OCCCN1C=C2C(=O)C(C)(OC(=O)CCc3ccccc3)C(=O)C=C2C=C1c1ccc(C#N)cc1 (stereo not given) 100 µM [activator, partial curve, poor fit]
COc1ccc(N(C(=O)c2cnccn2)C(C(=O)NC2CCCCC2)c2ccccc2)cc1 (stereo not given) 0.767 µM [activator, full curve, poor fit]
C#CCOCCOCCOCCNc1nc(N2CCN(C(=O)CCCCCCCCCCNC(=O)[C@@H](CCC(=O)O)n3cc(CCCCCN)nn3)CC2)nc(N2CCN(C(=O)CCCCCCCCCCNC(=O)[C@H](CO)n3cc(CCCSC)nn3)CC2)n1 44.7 µM [activator, partial curve, poor fit]
O=C(COC(=O)C12CC3CC(CC(O)(C3)C1)C2)Nc1ccccc1OC(F)F 35.5 µM [activator, single point]
O=C(COC(=O)c1cccc(Br)c1)NCCc1ccc(F)cc1 44.7 µM [activator, partial curve, poor fit]
COc1ccc(OC)c(/C=C/C(=O)Nc2ccc(OC)nc2)c1 39.8 µM [activator, single point]
Cc1ccc(-c2noc(CCC(=O)Nc3ccccc3C)n2)cc1 56.2 µM [activator, single point]
COC(=O)c1ccccc1NC(=O)Nc1cccc(OCc2cc(=O)n3cccc(C)c3n2)c1 79.4 µM [activator, partial curve, poor fit]
Cc1ccnc(SCc2cc(=O)c(OC(=O)c3cc([N+](=O)[O-])ccc3Cl)co2)n1 158 µM [activator, single point]
Cc1ccc(C)c(CSc2c(C(C)C)cnc3c2c(=O)n(C)c(=O)n3C)c1 1.22 µM [activator, partial curve, poor fit]
CCOc1ccc(C2/C(=C(/O)c3ccc4c(c3)CC(C)O4)C(=O)C(=O)N2CCCn2ccnc2)cc1 (stereo not given) 112 µM [activator, single point]
Cc1ccc(S(=O)(=O)N2CCCCC2C(=O)N2CCN(Cc3ccccc3)CC2)cc1 (stereo not given) 25.1 µM [activator, partial curve, poor fit]
O=C(O)CC1NC(=O)N(c2ccc(Cl)cc2)C1=O (stereo not given) 31.6 µM [activator, single point]
CCOC(=O)C1=C(N)n2c(s/c(=C\c3ccco3)c2=O)=C(C(=O)OC(C)C)C1c1ccco1 (stereo not given) 4.47 µM [activator, partial curve]
CC1(C)CC(NC(=O)C(=O)NCCc2ccc(Cl)cc2)CC(C)(C)N1 6.31 µM [activator, full curve, poor fit]
CCOc1cc2[nH]c(=S)n(CCC(=O)NC3CCCCC3)c(=O)c2cc1OCC 141 µM [activator, single point]
COc1ccc2c(Sc3ccccc3)c(C(=O)NCc3cc(Br)ccc3OC)[nH]c2c1 126 µM [activator, single point]
CCC(=O)N1CCc2cc(S(=O)(=O)NC(CC(C)C)C(=O)NCc3ccc(C)cc3)ccc21 (stereo not given) 126 µM [activator, single point]
NS(=O)(=O)c1ccc(CCNC(=O)CSc2ccccc2)cc1 15.8 µM [activator, partial curve]
CN(C(=O)COC(=O)c1nc(-c2ccccc2)n(-c2ccccc2)n1)C1CCS(=O)(=O)C1 (stereo not given) 12.6 µM [activator, partial curve]
COc1ccc(C2=Nn3c(nnc3-c3ccc(OC)cc3)SC2)cc1 39.8 µM [activator, single point]
CCN(C(=O)CN1C(=O)c2ccc([N+](=O)[O-])cc2C1=O)C1CCCCC1 112 µM [activator, single point]
Cc1cc2nnc(SCC(=O)NCc3cccs3)n2c(N)n1 3.16 µM [activator, partial curve]
CC(C)c1nc(SCC(=O)N2CCCC2)c2ccccc2n1 17.8 µM [activator, partial curve, poor fit]
O=C(O)CN1C(=O)/C(=C\c2ccccc2OCc2ccc(F)cc2)SC1=S 1.41 µM [activator, full curve]
CC(C)(C)c1ccc(S(=O)(=O)NCc2ccc(C(=O)N3CCOCC3)cc2)cc1 39.8 µM [activator, single point]
COc1ccc(N2CCN(C(=O)c3ccc(C)cc3Cl)CC2)cc1 3.55 µM [activator, single point]
CCC(C)NC(=O)C1CCCN(C(=O)NC2CCCCC2)C1 (stereo not given) 14.1 µM [activator, partial curve]
COc1cc(C(=O)N/N=C/C2CC=CCC2)cc(OC)c1OC (stereo not given) 17.8 µM [activator, full curve, poor fit]
CCOC(=O)CCCc1sc(N)nc1-c1[nH]c(=O)[nH]c1C 3.55 µM [activator, partial curve, poor fit]

A draw from above in order of molecular weight, smallest number first:
Potency, inconclusive:
Cc1ccc(-c2cc(Cc3ccc(F)cc3)c(=O)[nH]n2)cc1 1.78 µM [activator, full curve, poor fit]
CCC(=O)N1CCc2cc(S(=O)(=O)NC(CC(C)C)C(=O)NCc3ccc(C)cc3)ccc21 (stereo not given) 126 µM [activator, single point]
CCOc1ccc(C2/C(=C(/O)c3ccc4c(c3)CC(C)O4)C(=O)C(=O)N2CCCn2ccnc2)cc1 (stereo not given) 112 µM [activator, single point]

Following part.

Potency, inactive:
CCOc1ccccc1CNC(=O)c1nn(C)c2c1CS(=O)(=O)c1ccccc1-2

Potency, active:
O=C(O)c1cccnc1Sc1ccc(Cl)cc1 50.1 µM

activation, inconclusive:
CC1CCCC(NC(=O)CSc2cccc[n+]2[O-])C1C (stereo not given) 73.5% [activator]
COc1ccc([N+](=O)[O-])cc1NC(=O)C(C)OC(=O)CN1C(=O)C2CC=CCC2C1=O (stereo not given) 62.1% [activator]
COc1ccc(CC(=O)Nc2ccc(-c3nc4ccccc4s3)cc2Cl)cc1 -57.6% [activator]
CCn1c(CCCCc2n[nH]c(=S)n2CC)n[nH]c1=S 41.1% [activator]
O=C(CCc1ccccc1)OCC(=O)c1ccc(Br)cc1 39.2% [activator]
CC(=O)CCc1c(C)[nH]c2ccccc2c1=O 20.7% [activator] [at 57.5 µM]
O=C(CCC(=O)N1CCCC1)Nc1ccc(Cl)c(Cl)c1 62.9% [activator]
COC(=O)C(Cc1ccccc1)NC(=O)CNC(=O)c1ccc(Br)cc1 (stereo not given) 38.1% [activator]
COc1ccccc1N1CCN(C(=O)c2noc(C)c2[N+](=O)[O-])CC1 117% [activator]
Cc1ccc2cccc(OCC(=O)N3CC(C)CC(C)C3)c2n1 (stereo not given) 35% [activator]
CC(CCO)Nc1nc2c([nH]1)c(=O)n(C)c(=O)n2C (stereo not given) 122% [activator] [at 57.5 µM]

activation, inactive:
COc1cccc(-c2cccc(NC(=O)C3CCN(Cc4nccs4)CC3)c2)c1 -10.9%
COc1ccc2cc(S(=O)(=O)c3ccccc3F)c(=O)oc2c1 -2.31%
O=C1OC(c2ccccc2)(c2ccc3cc(O)ccc3c2)c2ccccc21 (stereo not given) -13.2%
Brc1ccc(CSc2ccc3nnc(-c4ccccn4)n3n2)cc1 -35.3%
Cc1ccc(C)c(CSc2nnc(-c3cccnc3)o2)c1 -8.83%
Cc1cc(Nc2ccc(O)cc2)n2c(nc3ccccc32)c1C#N -12%
COc1ccc(-c2noc(CCCCC(=O)N3CCN(c4cc(C)ccc4C)CC3)n2)cc1 -51.2%
COc1ccc(CN(CCC(c2ccc(F)cc2)C2CCOC(C)(C)C2)C(=O)c2ccco2)cc1 (stereo not given) -14%
Cc1nc(SCC(=O)Nc2cccc(S(=O)(=O)N3CCOCC3)c2)nc(C)c1C -6.17%
CSCCC(NC(=O)c1ccco1)C(=O)OC(C)C(=O)NC(=O)NC1CCCCC1 (stereo not given) -13.7%
COc1ccc(C(=O)Nc2nnc(C)s2)cc1S(=O)(=O)N1CCOCC1 -22.2%
Cc1ccccc1C(NC(=O)C1CCN(Cc2ccc(Oc3ccccc3)cc2)CC1)c1ccsc1 (stereo not given) 5.21%
Cc1ccccc1-n1ncc2c(SCC(=O)NCc3cccs3)ncnc21 -19.1% [at 57.5 µM]
COC(=O)c1ccc(NC(=S)NCCc2ccc(OC)cc2)cc1 -56.4%
Cc1nnc(SCc2nnc(-c3cccs3)o2)n1Cc1ccccc1 -22.3%
CC(C)Cc1cc(C(=O)N2CCN(c3ccc(F)cc3)CC2)no1 -22.3%
COc1cc(OC)cc(C(=O)Nc2ccc3oc(-c4cccc5c(Br)cccc45)nc3c2)c1 -11.9%
